Experimental findings from PubChem BioAssay AID220 (DTP/NCI, 2004) are described below.

The list does not hold the whole screen: it gathers some chemical classes. Other doses and runs of a compound may be missing. T/C: endpoint of the treated group in % of that of the vehicle group. Schedules are NCI's codes, taken here to give the interval after Q, in days (D) or hours (H), and the number of doses after X. Some entries show no survivor count and are marked so; the dose need not have been tolerated. Some entries hold several experiments; the values are given in rising order. Some T/C values are followed by the survivors on the day toxicity was checked; where neither a count nor a note follows, no animal had died by that day. Some entries give survivors of the animals treated and no T/C: the source files T/C as zero there, which appears to mark a toxic dose or a test without result, not a measured value. Counts of survivors are from the toxicity check, whose day is not always given; animals may have died later.

The assay concerns CD8F1 mice, subcutaneous mammary adenocarcinoma, T/C%. Kind of assay: NCI In Vivo Anticancer Drug Screen. Data for tumor model Mammary Adenocarcinoma CD8F1 (subcutaneous) in CD8F1. Particulars: higher T/C = larger tumour. As for the experimental part: The antitumor activity of compounds was measured in mice bearing transplantable tumors. Survival or tumor size were measured and the results are expressed as the measurement made in the treated group (T) divided by the measurement made in the vehicle treated control group (C). The tumor model used in this assay is Mammary Adenocarcinoma CD8F1 (subcutaneous) in CD8F1

Setting [1] is: T/C endpoint: median tumor weight (est.), dose: 6.25 mg/kg/injection, schedule: Q07DX005 (ip), vehicle: Klucel (hydroxypropylcellulose) (HPC), evaluation day not shown.
Setting [2] is: T/C endpoint: median tumor weight (est.), dose: 12.5 mg/kg/injection, schedule: Q07DX005 (ip), vehicle: Klucel (hydroxypropylcellulose) (HPC), evaluation day not shown.
The mark [3] stands for this setting: T/C endpoint: median tumor weight (est.), dose: 25.0 mg/kg/injection, schedule: Q07DX005 (ip), vehicle: Klucel (hydroxypropylcellulose) (HPC), evaluation day not shown.
Setting [4] is: T/C endpoint: median tumor weight (est.), dose: 50.0 mg/kg/injection, schedule: Q07DX005 (ip), vehicle: Klucel (hydroxypropylcellulose) (HPC), evaluation day not shown.

Take `NC1CCCCC1.NP(=O)(O)N(CCCl)CCCl`: the T/C reads like this: (T/C endpoint: median tumor weight change, dose: 25.0 mg/kg/injection, schedule: Q01DX001 (ip), vehicle: water, evaluated on day 28) 108 % of control; (T/C endpoint: median tumor weight change, dose: 25.0 mg/kg/injection, schedule: Q01DX001 (ip), vehicle: water, evaluated on day 35) 57 % of control; (T/C endpoint: median tumor weight change, dose: 50.0 mg/kg/injection, schedule: Q01DX001 (ip), vehicle: water, evaluated on day 28) 133 % of control; (T/C endpoint: median tumor weight change, dose: 50.0 mg/kg/injection, schedule: Q01DX001 (ip), vehicle: water, evaluated on day 33) 21 % of control; (T/C endpoint: median tumor weight change, dose: 50.0 mg/kg/injection, schedule: Q01DX001 (ip), vehicle: water, evaluated on day 35) 58 % of control; (T/C endpoint: median tumor weight change, dose: 50.0 mg/kg/injection, schedule: Q01DX001 (ip), vehicle: water, evaluated on day 37) 72 % of control. Moreover, the T/C was 63 % of control (T/C endpoint: median tumor weight change, dose: 100.0 mg/kg/injection, schedule: Q01DX001 (ip), vehicle: water, evaluated on day 28); 29 % of control (T/C endpoint: median tumor weight change, dose: 100.0 mg/kg/injection, schedule: Q01DX001 (ip), vehicle: water, evaluated on day 33); 8 % of control (T/C endpoint: median tumor weight change, dose: 100.0 mg/kg/injection, schedule: Q01DX001 (ip), vehicle: water, evaluated on day 35); 17 % of control (T/C endpoint: median tumor weight change, dose: 100.0 mg/kg/injection, schedule: Q01DX001 (ip), vehicle: water, evaluated on day 37); 36 % of control (T/C endpoint: median tumor weight change, dose: 200.0 mg/kg/injection, schedule: Q01DX001 (ip), vehicle: water, evaluated on day 28); 12 % of control [9 of 10 alive on day 33] (T/C endpoint: median tumor weight change, dose: 200.0 mg/kg/injection, schedule: Q01DX001 (ip), vehicle: water, evaluated on day 33). Also, the T/C (T/C endpoint: median tumor weight change, dose: 400.0 mg/kg/injection, schedule: Q01DX001 (ip), vehicle: water, evaluated on day 28) is 38 % of control [7 of 10 alive on day 28]. The survivor count reads like this: (T/C endpoint: median tumor weight change, dose: 200.0 mg/kg/injection, schedule: Q01DX001 (ip), vehicle: water) 0 of 10 on day 37 and 3 of 10 on day 35; (T/C endpoint: median tumor weight change, dose: 400.0 mg/kg/injection, schedule: Q01DX001 (ip), vehicle: water) 0 of 10 on day 33, 0 of 10 on day 35, 1 of 10 on day 37.

`O=NN(CCSCCCl)C(=O)NC1CCCCC1`: the T/C reads like this: (T/C endpoint: median tumor weight change, dose: 12.5 mg/kg/injection, schedule: Q01DX001 (ip), vehicle: saline with Tween-80, evaluated on day 28) 209 % of control; (T/C endpoint: median tumor weight change, dose: 15.62 mg/kg/injection, schedule: Q01DX001 (ip), vehicle: saline with Tween-80, evaluated on day 31) 32 % of control; (T/C endpoint: median tumor weight change, dose: 25.0 mg/kg/injection, schedule: Q01DX001 (ip), vehicle: saline with Tween-80, evaluated on day 28) 136 % of control; (T/C endpoint: median tumor weight change, dose: 25.0 mg/kg/injection, schedule: Q01DX001 (ip), vehicle: saline with Tween-80, evaluated on day 33) 98 % of control; (T/C endpoint: median tumor weight change, dose: 25.0 mg/kg/injection, schedule: Q01DX001 (ip), vehicle: saline, evaluated on day 40) 102 % of control; (T/C endpoint: median tumor weight change, dose: 50.0 mg/kg/injection, schedule: Q01DX001 (ip), vehicle: saline with Tween-80, evaluated on day 33) 90 % of control. Moreover, the T/C by setting is: (T/C endpoint: median tumor weight change, dose: 50.0 mg/kg/injection, schedule: Q01DX001 (ip), vehicle: saline, evaluated on day 40) 135 % of control; (T/C endpoint: median tumor weight change, dose: 100.0 mg/kg/injection, schedule: Q01DX001 (ip), vehicle: saline with Tween-80, evaluated on day 33) 7 % of control; (T/C endpoint: median tumor weight change, dose: 100.0 mg/kg/injection, schedule: Q01DX001 (ip), vehicle: saline, evaluated on day 40) 124 % of control; (T/C endpoint: median tumor weight change, dose: 200.0 mg/kg/injection, schedule: Q01DX001 (ip), vehicle: saline, evaluated on day 40) 116 % of control.

Take `Cc1ccc(N(CCBr)CCBr)cc1`: the T/C (T/C endpoint: median tumor weight (est.), dose: 3.25 mg/kg/injection, schedule: Q07DX005 (ip), vehicle: Klucel (hydroxypropylcellulose) (HPC), evaluation day not shown) is 167 % of control [survivor count not shown]; the T/C under setting [1] is 164 % of control [survivor count not shown]; the T/C (T/C endpoint: median tumor weight (est.), dose: 12.5 mg/kg/injection, schedule: Q01DX005 (ip), vehicle: Klucel (hydroxypropylcellulose) (HPC), evaluation day not shown) was 16 % of control [survivor count not shown]; the T/C under setting [2] is 103 % of control [survivor count not shown]; the T/C (T/C endpoint: median tumor weight (est.), dose: 25.0 mg/kg/injection, schedule: Q01DX005 (ip), vehicle: Klucel (hydroxypropylcellulose) (HPC), evaluation day not shown) is 48 % of control [survivor count not shown].

As for `ClCCN(CCCl)c1ccc(Cl)cc1`, the T/C was 116 % of control [survivor count not shown] under setting [2], 109 % of control [survivor count not shown] under setting [3] and 131 % of control [survivor count not shown] under setting [4].

Regarding `C[N+](CCCl)(CCCl)Cc1ccc([N+](=O)[O-])cc1`, the T/C runs as follows: (T/C endpoint: median tumor weight (est.), dose: 6.25 mg/kg/injection, schedule: Q07DX005 (ip), vehicle: saline, evaluation day not shown) 34 % of control [survivor count not shown]; (T/C endpoint: median tumor weight (est.), dose: 12.5 mg/kg/injection, schedule: Q07DX005 (ip), vehicle: saline, evaluation day not shown) 29 % of control [survivor count not shown]; (T/C endpoint: median tumor weight (est.), dose: 25.0 mg/kg/injection, schedule: Q07DX005 (ip), vehicle: saline, evaluation day not shown) 39 % of control [survivor count not shown]; (T/C endpoint: median tumor weight (est.), dose: 50.0 mg/kg/injection, schedule: Q07DX005 (ip), vehicle: saline, evaluation day not shown) 9 % of control [survivor count not shown].

Consider `CC1=CC(=O)C(N(CCCl)CCCl)=CC1=O`, for which the T/C reads like this: (T/C endpoint: median tumor weight (est.), dose: 1.56 mg/kg/injection, schedule: Q07DX005 (ip), vehicle: Klucel (hydroxypropylcellulose) (HPC), evaluation day not shown) 85 % of control [survivor count not shown]; (T/C endpoint: median tumor weight (est.), dose: 3.13 mg/kg/injection, schedule: Q07DX005 (ip), vehicle: Klucel (hydroxypropylcellulose) (HPC), evaluation day not shown) 68 % of control [survivor count not shown]; under setting [1], 10 [survivor count not shown] and 19 % of control [survivor count not shown]; under setting [2], 1 % of control [survivor count not shown]; (T/C endpoint: median tumor weight change, dose: 3.75 mg/kg/injection, schedule: Q01DX001 (ip), vehicle: Klucel (hydroxypropylcellulose) (HPC), evaluated on day 34) 143 % of control; (T/C endpoint: median tumor weight change, dose: 3.75 mg/kg/injection, schedule: Q01DX001 (ip), vehicle: Klucel (hydroxypropylcellulose) (HPC), evaluated on day 36) 59 % of control. The T/C is 27 % of control (T/C endpoint: median tumor weight change, dose: 7.5 mg/kg/injection, schedule: Q01DX001 (ip), vehicle: Klucel (hydroxypropylcellulose) (HPC), evaluated on day 32); 72 % of control (T/C endpoint: median tumor weight change, dose: 7.5 mg/kg/injection, schedule: Q01DX001 (ip), vehicle: Klucel (hydroxypropylcellulose) (HPC), evaluated on day 34); 36 % of control (T/C endpoint: median tumor weight change, dose: 7.5 mg/kg/injection, schedule: Q01DX001 (ip), vehicle: Klucel (hydroxypropylcellulose) (HPC), evaluated on day 36).

Consider `NS(=O)(=O)c1ccc(N(CCCl)CCCl)cc1`, for which the T/C runs as follows: under setting [2], 178 % of control [survivor count not shown]; under setting [3], 143 % of control [survivor count not shown]; under setting [4], 127 % of control [survivor count not shown]; (T/C endpoint: median tumor weight (est.), dose: 100.0 mg/kg/injection, schedule: Q07DX005 (ip), vehicle: Klucel (hydroxypropylcellulose) (HPC), evaluation day not shown) 93 % of control [survivor count not shown].
